The text below walks through data of the supplement of paper PMC9744312.

Structures can show the parent of a compound that is named as a salt. This is one part of the list. This is a noisy data set.

For the experiment, the system named is Peyronie's disease tunica albuginea primary fibroblasts. The experiment can be described thus: cell viability (DRAQ5 nuclear stain) relative to TGF-beta1-only control; higher = more viable cells. The following applies: 10 µM; TGF-beta1 10 ng/mL; 72 h.
Broadly, the cell viability is a read-out of living cells in per cent, often relative to untreated cells. As to `CC(C)c1nc(N(C)S(C)(=O)=O)nc(-c2ccc(F)cc2)c1/C=C/[C@@H](O)C[C@@H](O)CC(=O)O` [Rosuvastatin Calcium], the cell viability was 85.3%.
As for `CC(C)c1nc(N(C)S(C)(=O)=O)nc(-c2ccc(F)cc2)c1/C=C/[C@@H](O)C[C@@H](O)CC(=O)O` [Rosuvastatin], the figure is 79.9%; as for `Nc1ccc(S(=O)(=O)NC(=O)c2ccccc2)cc1` [Sulfabenzamide], 69.1%; as for `C[N+](C)(C)CCOP(=O)(O)OP(=O)([O-])OC[C@H]1O[C@@H](n2ccc(N)nc2=O)[C@H](O)[C@@H]1O` [Citicoline sodium], 84.1%.
The result for `CCN(CC)CCCC(C)Nc1ccnc2cc(Cl)ccc12` (stereo not given) [Chloroquine Phosphate] reads 99.6%; that for `CC(C)=CCOc1ccc(/C=C/C(=O)c2ccc(OCC=C(C)C)cc2OCC(=O)O)cc1` [Sofalcone], 87.3%.
The result for `Oc1ccc(C2CNCCc3c2cc(O)c(O)c3Cl)cc1` (stereo not given) [Fenoldopam mesylate] reads 75%; that for `CC(C(=O)O)c1cccc(Oc2ccccc2)c1` (stereo not given) [Fenoprofen Calcium], 86.2%.
Regarding `CC(C(=O)O)c1cccc(Oc2ccccc2)c1` (stereo not given) [Fenoprofen calcium hydrate], the cell viability was 87%.
On to `CCCc1ncc(C[n+]2ccccc2C)c(N)n1` [Amprolium HCl], for which the cell viability was found to be 98.6%.
As for `CO/N=C(\C(=O)N[C@@H]1C(=O)N2C(C(=O)O)=CCS[C@H]12)c1csc(N)n1` [Ceftizoxime], the cell viability came to 97.2%.
The result for `OC[C@H]1OC(O)[C@H](O)[C@@H](O)[C@@H]1O` (stereo not given in full) [Dextrose] reads 91.4%; that for `OC[C@@H](O)[C@@H](O)[C@H](O)[C@H](O)CO` [D-Mannitol], 95.2%.
As for `CCn1cc(C(=O)O)c(=O)c2cc(F)c(N3CCNCC3)nc21` [Enoxacin], the figure is 95.4%; as for `CCn1cc(C(=O)O)c(=O)c2cc(F)c(N3CCNCC3)nc21` [Enoxacin Sesquihydrate], 101%; as for `CC(=O)OCC(=O)NCCCOc1cccc(CN2CCCCC2)c1` [Roxatidine Acetate HCl], 98.2%.
As for `C[C@H](NCc1ccc(OCc2cccc(F)c2)cc1)C(N)=O` [Safinamide Mesylate], the figure is 94.6%.
Turning to `C[C@H](NCc1ccc(OCc2cccc(F)c2)cc1)C(N)=O` [Safinamide], the cell viability is 93.4%.
Consider `OCCN1CCN(CCCN2c3ccccc3Sc3ccc(C(F)(F)F)cc32)CC1` [Fluphenazine dihydrochloride], for which the cell viability is 80%.
The result for `CC(C)(Oc1ccc(CCNC(=O)c2ccc(Cl)cc2)cc1)C(=O)O` [Bezafibrate] reads 97.5%; that for `c1ccc(CC2=NCCN2)cc1` [Tolazoline HCl], 95%.
Turning to `Clc1ccc2c(c1)C(N1CCNCC1)=Nc1ccccc1O2` [Amoxapine], the cell viability came out at 93.6%.
For `O=C1c2ccccc2C(=O)C1c1ccccc1` [Phenindione], the cell viability amounted to 81.1%.
As for `O=C(Cn1ccnc1[N+](=O)[O-])NCc1ccccc1` [Benznidazole], the figure is 99.1%.
For `O=C(c1cc(Cc2n[nH]c(=O)c3ccccc23)ccc1F)N1CCN(C(=O)C2CC2)CC1`, the cell viability worked out at 79.6%.
As for `CC[C@H]1OC(=O)[C@H](C)[C@@H](O[C@H]2C[C@@](C)(OC)[C@@H](O)[C@H](C)O2)[C@H](C)[C@@H](O[C@@H]2O[C@H](C)C[C@H](N(C)C)[C@H]2O)[C@](C)(O)C[C@@H](C)C(=O)[C@H](C)[C@@H](O)[C@]1(C)O` [Erythromycin thiocyanate], the figure is 82.7%; as for `CC[C@H]1OC(=O)[C@H](C)[C@@H](O[C@H]2C[C@@](C)(OC)[C@@H](O)[C@H](C)O2)[C@H](C)[C@@H](O[C@@H]2O[C@H](C)C[C@H](N(C)C)[C@H]2O)[C@](C)(O)C[C@@H](C)C(=O)[C@H](C)[C@@H](O)[C@]1(C)O` [Erythromycin], 59.3%; as for `CC(C(=O)O)c1ccc(CC2CCCC2=O)cc1` (stereo not given) [Loxoprofen], 86.5%.
The result for `CC(C(=O)O)c1ccc(CC2CCCC2=O)cc1` (stereo not given) [Loxoprofen Sodium] reads 99.5%.
Regarding `COc1cccc(-c2c(C)n(Cc3c(F)cccc3C(F)(F)F)c(=O)n(C[C@H](NCCCC(=O)O)c3ccccc3)c2=O)c1F` [Elagolix Sodium], the cell viability is 85.9%.
For `CC1=C(/C=C/C(C)=C/C=C/C(C)=C/C=C/C=C(C)/C=C/C=C(C)/C=C/C2=C(C)CCCC2(C)C)C(C)(C)CCC1` [Beta Carotene], the cell viability was 91.2%.
As for `CO[C@H]1/C=C/O[C@@]2(C)Oc3c(C)c(O)c4c(O)c(c(/C=N/N5CCN(C)CC5)c(O)c4c3C2=O)NC(=O)/C(C)=C\C=C\[C@H](C)[C@H](O)[C@@H](C)[C@@H](O)[C@@H](C)[C@H](OC(C)=O)[C@@H]1C` [Rifampin], the figure is 83.1%; as for `CCCSc1ccc2[nH]c(NC(=O)OC)nc2c1` [Albendazole], 59.6%.
In the case of `Cc1c(Cl)cccc1Nc1ccccc1C(=O)O` [Tolfenamic Acid], the cell viability was 89.1%.
Take `CC(C)Nc1cc(-c2c[nH]c(C(=O)N[C@H](CO)c3cccc(Cl)c3)c2)c(Cl)cn1`: the cell viability was found to be 63.4%.
As for `Cc1ccc(N(CC2=NCCN2)c2cccc(O)c2)cc1` [Phentolamine Mesylate], the figure is 95.3%.
As for `CNC[C@@H](O)c1ccc(O)c(O)c1` [L-Adrenaline], the figure is 107%; as for `CCc1ccc(CCOc2ccc(CC3SC(=O)NC3=O)cc2)nc1` (stereo not given) [Pioglitazone HCl], 95.8%; as for `CCc1ccc(CCOc2ccc(CC3SC(=O)NC3=O)cc2)nc1` (stereo not given) [Pioglitazone], 105%.
Take `Cc1c(C(C)C)c(=O)n(-c2ccccc2)n1C` [Propyphenazone (4-Isopropylantipyrine)]: the cell viability came out at 98.8%.
The result for `C[C@H](N[C@@H](CCc1ccccc1)C(=O)O)C(=O)N1CCC[C@H]1C(=O)O` [Enalaprilat Dihydrate] reads 96.7%; that for `NC(=O)N1CCC(CC(=O)N2CCC([C@H]3c4ncc(Br)cc4CCc4cc(Cl)cc(Br)c43)CC2)CC1` [Lonafarnib], 90.7%; that for `CN(C)[C@@H]1C(O)=C(C(N)=O)C(=O)[C@@]2(O)C(O)=C3C(=O)c4c(O)cccc4[C@@](C)(O)[C@H]3C[C@@H]12` [Tetracycline HCl], 75.7%.
As for `COCCCC/C(=N\OCCN)c1ccc(C(F)(F)F)cc1` [Fluvoxamine maleate], the figure is 85.7%.
The result for `COC(=O)[C@H](c1ccccc1Cl)N1CCc2sccc2C1` [Clopidogrel] reads 90.3%.
